Results are given in words; binding and its absence hold for the method and conditions named.
Legend:
[1] = molecular target: soluble myoferlin (residues 1-1997) (human) (UniProt Q9NZM1); experiment: SEC
[2] = molecular target: soluble dysferlin (residues 1-2017) (human) (UniProt O75923); experiment: SEC

Amino acid sequences for entries named in this document (tags omitted). Residues count along the entry.
UniProt Q9NZM1, 1-1997: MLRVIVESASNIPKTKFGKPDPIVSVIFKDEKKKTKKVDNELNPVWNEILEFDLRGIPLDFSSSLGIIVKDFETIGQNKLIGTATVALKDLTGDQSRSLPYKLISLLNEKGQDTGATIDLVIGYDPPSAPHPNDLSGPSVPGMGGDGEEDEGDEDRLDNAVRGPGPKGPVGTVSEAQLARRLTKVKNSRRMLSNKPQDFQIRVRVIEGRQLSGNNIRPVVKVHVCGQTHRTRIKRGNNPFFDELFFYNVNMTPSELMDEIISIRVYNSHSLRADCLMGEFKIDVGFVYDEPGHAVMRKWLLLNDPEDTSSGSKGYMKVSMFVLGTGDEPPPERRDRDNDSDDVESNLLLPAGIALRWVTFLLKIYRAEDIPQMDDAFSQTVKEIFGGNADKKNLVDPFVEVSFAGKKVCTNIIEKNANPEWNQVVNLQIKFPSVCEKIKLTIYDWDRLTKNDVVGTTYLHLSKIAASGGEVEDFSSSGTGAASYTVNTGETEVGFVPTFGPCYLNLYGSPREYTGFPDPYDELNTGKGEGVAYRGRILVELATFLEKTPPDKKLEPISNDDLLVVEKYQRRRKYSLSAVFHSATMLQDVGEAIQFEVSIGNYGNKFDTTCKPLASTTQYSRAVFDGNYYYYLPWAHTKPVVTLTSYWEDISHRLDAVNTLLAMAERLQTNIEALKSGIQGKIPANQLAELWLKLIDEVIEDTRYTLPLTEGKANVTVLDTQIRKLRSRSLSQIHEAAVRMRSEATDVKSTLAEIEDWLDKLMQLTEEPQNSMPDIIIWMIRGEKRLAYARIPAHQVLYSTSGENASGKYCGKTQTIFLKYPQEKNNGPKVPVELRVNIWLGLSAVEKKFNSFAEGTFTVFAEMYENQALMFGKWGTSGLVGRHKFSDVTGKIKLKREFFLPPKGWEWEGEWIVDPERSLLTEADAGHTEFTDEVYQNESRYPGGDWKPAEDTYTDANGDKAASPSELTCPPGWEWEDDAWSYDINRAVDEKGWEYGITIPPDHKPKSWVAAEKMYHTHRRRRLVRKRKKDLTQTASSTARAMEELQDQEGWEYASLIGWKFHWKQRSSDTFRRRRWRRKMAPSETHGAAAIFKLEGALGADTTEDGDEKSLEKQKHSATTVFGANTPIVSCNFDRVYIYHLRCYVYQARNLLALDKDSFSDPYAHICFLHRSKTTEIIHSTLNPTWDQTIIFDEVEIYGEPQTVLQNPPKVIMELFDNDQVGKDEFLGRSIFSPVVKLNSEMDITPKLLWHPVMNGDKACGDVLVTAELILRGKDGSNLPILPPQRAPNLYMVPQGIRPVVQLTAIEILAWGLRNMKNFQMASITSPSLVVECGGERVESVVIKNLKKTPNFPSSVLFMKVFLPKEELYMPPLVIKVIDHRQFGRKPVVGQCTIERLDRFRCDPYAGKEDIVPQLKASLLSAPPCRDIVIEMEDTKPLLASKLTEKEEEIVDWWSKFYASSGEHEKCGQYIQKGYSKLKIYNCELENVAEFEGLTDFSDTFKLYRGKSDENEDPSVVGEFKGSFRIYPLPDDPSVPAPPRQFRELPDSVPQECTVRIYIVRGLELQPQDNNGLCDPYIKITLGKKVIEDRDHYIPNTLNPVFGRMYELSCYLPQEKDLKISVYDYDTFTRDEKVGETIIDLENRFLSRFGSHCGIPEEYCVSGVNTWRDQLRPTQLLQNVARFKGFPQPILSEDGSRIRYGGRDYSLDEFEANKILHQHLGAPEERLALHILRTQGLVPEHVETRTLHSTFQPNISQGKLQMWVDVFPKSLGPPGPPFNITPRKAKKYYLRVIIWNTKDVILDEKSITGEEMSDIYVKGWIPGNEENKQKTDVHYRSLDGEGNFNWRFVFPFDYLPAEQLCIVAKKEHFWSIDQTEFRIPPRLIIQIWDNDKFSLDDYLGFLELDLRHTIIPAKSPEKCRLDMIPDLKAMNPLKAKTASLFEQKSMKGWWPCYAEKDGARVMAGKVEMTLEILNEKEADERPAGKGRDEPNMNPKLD
UniProt O75923, 1-2017: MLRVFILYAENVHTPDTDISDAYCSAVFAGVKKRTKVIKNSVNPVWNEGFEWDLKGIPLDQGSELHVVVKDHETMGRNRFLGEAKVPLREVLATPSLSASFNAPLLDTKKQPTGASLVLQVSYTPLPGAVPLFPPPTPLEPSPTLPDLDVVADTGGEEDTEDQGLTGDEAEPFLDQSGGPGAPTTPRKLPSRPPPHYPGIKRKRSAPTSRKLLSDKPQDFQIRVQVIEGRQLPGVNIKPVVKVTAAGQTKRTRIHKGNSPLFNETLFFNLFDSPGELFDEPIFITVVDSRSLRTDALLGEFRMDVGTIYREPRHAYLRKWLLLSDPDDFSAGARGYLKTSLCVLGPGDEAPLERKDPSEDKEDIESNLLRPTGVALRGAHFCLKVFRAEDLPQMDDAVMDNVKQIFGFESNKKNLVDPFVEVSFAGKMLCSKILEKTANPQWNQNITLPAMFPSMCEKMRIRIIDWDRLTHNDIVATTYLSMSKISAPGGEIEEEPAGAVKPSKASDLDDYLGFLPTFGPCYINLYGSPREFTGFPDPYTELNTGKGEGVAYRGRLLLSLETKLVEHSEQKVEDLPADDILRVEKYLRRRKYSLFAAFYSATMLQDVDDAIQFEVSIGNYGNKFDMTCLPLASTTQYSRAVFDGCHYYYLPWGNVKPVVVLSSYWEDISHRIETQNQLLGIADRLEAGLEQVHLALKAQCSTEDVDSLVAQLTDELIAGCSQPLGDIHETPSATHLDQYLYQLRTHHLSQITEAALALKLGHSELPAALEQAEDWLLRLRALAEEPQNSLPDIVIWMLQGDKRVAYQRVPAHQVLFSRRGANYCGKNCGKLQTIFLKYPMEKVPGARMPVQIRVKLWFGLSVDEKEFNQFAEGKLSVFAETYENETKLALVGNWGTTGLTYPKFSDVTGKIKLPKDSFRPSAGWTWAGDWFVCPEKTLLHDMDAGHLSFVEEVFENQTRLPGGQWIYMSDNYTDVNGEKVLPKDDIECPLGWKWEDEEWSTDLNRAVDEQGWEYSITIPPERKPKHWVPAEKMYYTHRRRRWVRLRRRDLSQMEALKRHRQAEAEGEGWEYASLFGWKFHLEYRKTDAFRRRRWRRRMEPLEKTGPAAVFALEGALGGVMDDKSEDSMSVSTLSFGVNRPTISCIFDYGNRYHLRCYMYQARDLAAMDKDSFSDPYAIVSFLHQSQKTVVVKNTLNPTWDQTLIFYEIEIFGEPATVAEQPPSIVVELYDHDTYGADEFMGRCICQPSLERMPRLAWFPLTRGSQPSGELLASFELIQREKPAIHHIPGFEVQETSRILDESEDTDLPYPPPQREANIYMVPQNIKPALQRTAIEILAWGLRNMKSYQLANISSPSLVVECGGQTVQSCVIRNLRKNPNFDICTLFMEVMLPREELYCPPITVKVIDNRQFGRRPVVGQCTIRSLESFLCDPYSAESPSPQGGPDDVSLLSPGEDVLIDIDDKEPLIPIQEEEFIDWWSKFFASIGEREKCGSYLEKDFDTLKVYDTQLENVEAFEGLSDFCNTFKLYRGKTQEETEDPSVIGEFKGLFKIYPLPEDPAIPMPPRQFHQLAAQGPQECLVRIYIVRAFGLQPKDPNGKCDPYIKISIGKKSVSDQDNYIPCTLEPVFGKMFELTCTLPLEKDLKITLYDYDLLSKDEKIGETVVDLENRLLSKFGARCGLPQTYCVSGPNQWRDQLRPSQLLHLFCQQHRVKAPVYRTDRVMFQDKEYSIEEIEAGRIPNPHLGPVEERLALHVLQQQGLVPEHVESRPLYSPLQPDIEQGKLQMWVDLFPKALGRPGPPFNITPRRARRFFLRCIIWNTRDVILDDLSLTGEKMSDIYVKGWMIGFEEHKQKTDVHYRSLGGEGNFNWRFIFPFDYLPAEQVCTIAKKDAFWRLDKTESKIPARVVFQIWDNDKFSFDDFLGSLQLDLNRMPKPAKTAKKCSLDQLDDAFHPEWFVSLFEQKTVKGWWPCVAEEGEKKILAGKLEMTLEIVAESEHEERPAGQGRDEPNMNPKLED

Row | Substance | binding [1] | binding [2]
1 | soluble myoferlin (residues 1-1997) (from UniProt Q9NZM1-1 1-1997) (domain or fragment) | no binding | 
2 | soluble dysferlin (residues 1-2017) (from UniProt O75923-1 1-2017) (domain or fragment) |  | no binding

From paper doi:10.1101/2025.01.25.634844
